Data published in the supplement of paper PMC3334620.
In all, about 33,000 sequences were measured (“E-score (-0.5 to 0.5)”: median about -0.0034, highest 2% from about 0.25 on). Some of the results follow.

Biological target: T1, Yap3 (UniProt P38749)
T1 sequence: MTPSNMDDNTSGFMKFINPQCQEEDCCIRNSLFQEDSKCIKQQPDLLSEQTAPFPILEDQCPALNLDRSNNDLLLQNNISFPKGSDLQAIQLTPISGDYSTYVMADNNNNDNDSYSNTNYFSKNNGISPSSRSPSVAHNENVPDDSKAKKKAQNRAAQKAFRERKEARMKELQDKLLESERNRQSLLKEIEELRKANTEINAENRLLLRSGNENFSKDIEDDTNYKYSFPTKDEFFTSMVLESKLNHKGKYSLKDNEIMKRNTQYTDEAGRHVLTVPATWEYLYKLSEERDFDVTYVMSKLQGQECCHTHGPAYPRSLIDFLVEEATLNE
Experiment: PBM E-score (8-mer binding enrichment) (E-score (-0.5 to 0.5)); higher = stronger / more preferred TF binding
Conditions: protein concentration: 100 nM; construct: GST-full length
Summary of the method: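 The E-score, a modified Wilcoxon-Mann-Whitney statistic, was computed by the Universal PBM Analysis Suite for every ungapped eight-base word pooled with its reverse complement. Scans behind it were normalised with masliner after bound GST-tagged yeast transcription factors were detected with fluorescent anti-GST. The proteins, at about 100-200 nM, had been applied to universal all-10-mer Agilent arrays made double-stranded by primer extension.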

| Sequence | PBM E-score |
| --- | --- |
| ACGAATCG | 0.141 |
| CGGTTGCA | -0.17 |
| CGGAGCCG | -0.253 |
| AGCGAACG | -0.158 |
| CTTAGGAC | -0.0958 |
| CCCACGAA | -0.00731 |
| TCCAGTAA | 0.0121 |
| TACTAGCA | 0.102 |
| AGTGTTTG | 0.145 |
| AATCCTGG | -0.00906 |
| GCTCGCGA | 0.109 |
| GATAGGTA | 0.18 |
| TCGATCGA | 0.155 |
| ACATTTAG | -0.0147 |
| CGCCGTGC | -0.141 |
| CGCTTAGA | -0.115 |
| GTTCTCTA | 0.1 |
| GAAGGTGC | -0.125 |
| CATGCCAG | -0.0993 |
| ACGATGTC | -0.136 |
| AGCGTTAT | -0.0355 |
| CCAAGATA | -0.018 |

| Sequence | PBM E-score |
| --- | --- |
| AACTGGCC | -0.0213 |
| AAACCCTT | 0.0938 |
| CATCGCCA | 0.0129 |
| GATATCTA | 0.0543 |
| GTAACTTA | 0.221 |
| GGTTTCAC | 0.0673 |
| GCCTCTCA | -0.194 |
| CATCCCGA | -0.00347 |
| GTATAAAA | 0.287 |
| GGCTGGGA | -0.103 |
| ACACCTAT | 0.0196 |
| TGTTAGAA | 0.0937 |
| CTGTTGGC | 0.0055 |
| ACGAGTGA | -0.148 |
| ATGCGGAG | -0.244 |
| AGTTCTAT | 0.12 |
| ACAACATG | 0.136 |
| TCGTTAGA | -0.272 |
| CGATACTC | 0.0503 |
| CCGTGAGG | -0.322 |
| AGACGTAC | -0.1 |
| AACCTCTC | 0.0137 |

As entered above.
PBM E-score with AGTTCTAT reads 0.12
PBM E-score with GGCTGGGA reads -0.103
PBM E-score with ACACCTAT reads 0.0196
PBM E-score with CTGTTGGC reads 0.0055
PBM E-score with ACAACATG reads 0.136
PBM E-score with AACTGGCC reads -0.0213

Next entries.

| Sequence | PBM E-score |
| --- | --- |
| AACGGCCG | 0.0727 |
| CCCAGGCA | -0.194 |
| CCGCCAGA | 0.0222 |
| GACACACA | 0.00427 |
| ATCCGCCC | -0.216 |
| ACGCCACG | -0.156 |
| CAGAAGGG | -0.303 |
| CGTACCAC | 0.0737 |
| GCTACCCC | -0.299 |
| CCCATGCC | -0.281 |
| CACGCAAC | 0.159 |
| AACACCTA | -0.0441 |
| ACGGTCAC | -0.137 |
| CAGCAGCC | -0.118 |
| AGTAAGTG | 0.0765 |
| TCTTAGCA | -0.107 |
| AGTGACCA | -0.0575 |
| GTGAACAC | -0.156 |
| ATATATTA | 0.32 |
| GGCGCGAA | -0.0201 |
| CGCGCGAC | 0.0956 |
| ACACGCAC | -0.144 |

| Sequence | PBM E-score |
| --- | --- |
| TCCGAACA | 0.14 |
| AAAGGGGA | -0.186 |
| ACACTGTG | 0.0222 |
| CGATGGAG | 0.0127 |
| GGAGTCGA | -0.157 |
| CGTACGAC | -0.0969 |
| CAGATCAC | -0.0752 |
| CGTAATTA | 0.335 |
| ATGGACGG | 0.0351 |
| ACATATAC | 0.146 |
| AGGCAAGG | -0.22 |
| CGGCAGGC | -0.189 |
| ACTGGGAT | -0.0213 |
| ACGCTGGG | -0.302 |
| GGTAGTTA | 0.0916 |
| CGGCGGGC | -0.189 |
| GTGATTCA | 0.0177 |
| ATGCGAGA | 0.0542 |
| ACGACGCC | -0.231 |
| CAAATACC | 0.0818 |
